Assay results taken from publication PMC6868374.
No constants are given. Whether binding was seen depends on the method and setting. In cells and extracts the contact can be indirect. Some entries that bind do so weakly or less than the wild type.

What was measured:
[1] = molecular target: T1, ZAR2 (Zar1-like, ZAR1L), mouse (mouse) (UniProt C3VD30); assay: co-IP; as a1, proteins co-expressed in HeLa cells, with RNase A treatment
T1 sequence: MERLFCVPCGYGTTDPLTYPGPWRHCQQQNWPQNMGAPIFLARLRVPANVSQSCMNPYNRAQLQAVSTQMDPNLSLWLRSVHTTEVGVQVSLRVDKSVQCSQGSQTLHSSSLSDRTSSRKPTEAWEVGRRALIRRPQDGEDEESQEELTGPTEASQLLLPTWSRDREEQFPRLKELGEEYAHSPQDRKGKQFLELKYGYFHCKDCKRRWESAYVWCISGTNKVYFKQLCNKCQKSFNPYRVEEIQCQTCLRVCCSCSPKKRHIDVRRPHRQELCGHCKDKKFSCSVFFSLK

[2] = molecular target: T2, ZAR1 (zygote arrest-1), mouse (mouse) (UniProt Q80SU3); assay: as above
T2 sequence: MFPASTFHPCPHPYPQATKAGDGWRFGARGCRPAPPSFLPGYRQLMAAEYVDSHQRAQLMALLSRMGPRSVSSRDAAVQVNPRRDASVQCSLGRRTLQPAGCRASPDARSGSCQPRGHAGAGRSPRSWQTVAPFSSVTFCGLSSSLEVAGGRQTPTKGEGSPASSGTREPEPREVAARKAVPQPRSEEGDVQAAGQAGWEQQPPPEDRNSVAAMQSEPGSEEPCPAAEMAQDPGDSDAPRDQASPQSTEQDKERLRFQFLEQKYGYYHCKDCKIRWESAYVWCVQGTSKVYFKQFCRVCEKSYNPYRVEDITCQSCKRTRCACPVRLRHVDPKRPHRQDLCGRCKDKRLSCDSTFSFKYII

[3] = molecular target: T1, ZAR2 (Zar1-like, ZAR1L), mouse (mouse); assay: co-IP; proteins co-expressed in HeLa cells for 48 h; lysis in 50 mM Tris-HCl pH 7.5, 150 mM NaCl, 10% glycerol, 0.5% NP-40; immunoprecipitation with affinity gels (Sigma) for 4 h at 4°C; western blot
[4] = molecular target: T2, ZAR1 (zygote arrest-1), mouse (mouse); assay: as above

Measured: binding

B1: PADI6 (protein, UniProt Q6TGC4 1-694)
chain: MVSVEGRAMSFQSIIHLSLDSPVHAVCVLGTEICLDLSGCAPQKCQCFTIHGSGRVLIDVANTVISEKEDATIWWPLSDPTYATVKMTSPSPSVDADKVSVTYYGPNEDAPVGTAVLYLTGIEVSLEVDIYRNGQVEMSSDKQAKKKWIWGPSGWGAILLVNCNPADVGQQLEDKKTKKVIFSEEITNLSQMTLNVQGPSCILKKYRLVLHTSKEESKKARVYWPQKDNSSTFELVLGPDQHAYTLALLGNHLKETFYVEAIAFPSAEFSGLISYSVSLVEESQDPSIPETVLYKDTVVFRVAPCVFIPCTQVPLEVYLCRELQLQGFVDTVTKLSEKSNSQVASVYEDPNRLGRWLQDEMAFCYTQAPHKTTSLILDTPQAADLDEFPMKYSLSPGIGYMIQDTEDHKVASMDSIGNLMVSPPVKVQGKEYPLGRVLIGSSFYPSAEGRAMSKTLRDFLYAQQVQAPVELYSDWLMTGHVDEFMCFIPTDDKNEGKKGFLLLLASPSACYKLFREKQKEGYGDALLFDELRADQLLSNGREAKTIDQLLADESLKKQNEYVEKCIHLNRDILKTELGLVEQDIIEIPQLFCLEKLTNIPSDQQPKRSFARPYFPDLLRMIVMGKNLGIPKPFGPQIKGTCCLEEKICCLLEPLGFKCTFINDFDCYLTEVGDICACANIRRVPFAFKWWKMVP
binds: all assays above

B2: MATER (protein, UniProt P59047 1-1200)
chain: MKVAGGLELGAAALLSASPRALVTLSTGPTCSILPKNPLFPQNLSSQPCIKMEGDKSLTFSSYGLQWCLYELDKEEFQTFKELLKKKSSESTTCSIPQFEIENANVECLALLLHEYYGASLAWATSISIFENMNLRTLSEKARDDMKRHSPEDPEATMTDQGPSKEKVPGISQAVQQDSATAAETKEQEISQAMEQEGATAAETEEQEISQAMEQEGATAAETEEQGHGGDTWDYKSHVMTKFAEEEDVRRSFENTAADWPEMQTLAGAFDSDRWGFRPRTVVLHGKSGIGKSALARRIVLCWAQGGLYQGMFSYVFFLPVREMQRKKESSVTEFISREWPDSQAPVTEIMSRPERLLFIIDGFDDLGSVLNNDTKLCKDWAEKQPPFTLIRSLLRKVLLPESFLIVTVRDVGTEKLKSEVVSPRYLLVRGISGEQRIHLLLERGIGEHQKTQGLRAIMNNRELLDQCQVPAVGSLICVALQLQDVVGESVAPFNQTLTGLHAAFVFHQLTPRGVVRRCLNLEERVVLKRFCRMAVEGVWNRKSVFDGDDLMVQGLGESELRALFHMNILLPDSHCEEYYTFFHLSLQDFCAALYYVLEGLEIEPALCPLYVEKTKRSMELKQAGFHIHSLWMKRFLFGLVSEDVRRPLEVLLGCPVPLGVKQKLLHWVSLLGQQPNATTPGDTLDAFHCLFETQDKEFVRLALNSFQEVWLPINQNLDLIASSFCLQHCPYLRKIRVDVKGIFPRDESAEACPVVPLWMRDKTLIEEQWEDFCSMLGTHPHLRQLDLGSSILTERAMKTLCAKLRHPTCKIQTLMFRNAQITPGVQHLWRIVMANRNLRSLNLGGTHLKEEDVRMACEALKHPKCLLESLRLDCCGLTHACYLKISQILTTSPSLKSLSLAGNKVTDQGVMPLSDALRVSQCALQKLILEDCGITATGCQSLASALVSNRSLTHLCLSNNSLGNEGVNLLCRSMRLPHCSLQRLMLNQCHLDTAGCGFLALALMGNSWLTHLSLSMNPVEDNGVKLLCEVMREPSCHLQDLELVKCHLTAACCESLSCVISRSRHLKSLDLTDNALGDGGVAALCEGLKQKNSVLARLGLKACGLTSDCCEALSLALSCNRHLTSLNLVQNNFSPKGMMKLCSAFACPTSNLQIIGLWKWQYPVQIRKLLEEVQLLKPRVVIDGSWHSFDEDDRYWWKN
binds: all assays above
